The source of these data is article PMC1698493.

For data set [1], the target named is T1, STAT6 (IL-4-activated, endogenous) (Mus musculus (C57BL/6)) (UniProt P52633).
T1 sequence (looked up, limits assumed): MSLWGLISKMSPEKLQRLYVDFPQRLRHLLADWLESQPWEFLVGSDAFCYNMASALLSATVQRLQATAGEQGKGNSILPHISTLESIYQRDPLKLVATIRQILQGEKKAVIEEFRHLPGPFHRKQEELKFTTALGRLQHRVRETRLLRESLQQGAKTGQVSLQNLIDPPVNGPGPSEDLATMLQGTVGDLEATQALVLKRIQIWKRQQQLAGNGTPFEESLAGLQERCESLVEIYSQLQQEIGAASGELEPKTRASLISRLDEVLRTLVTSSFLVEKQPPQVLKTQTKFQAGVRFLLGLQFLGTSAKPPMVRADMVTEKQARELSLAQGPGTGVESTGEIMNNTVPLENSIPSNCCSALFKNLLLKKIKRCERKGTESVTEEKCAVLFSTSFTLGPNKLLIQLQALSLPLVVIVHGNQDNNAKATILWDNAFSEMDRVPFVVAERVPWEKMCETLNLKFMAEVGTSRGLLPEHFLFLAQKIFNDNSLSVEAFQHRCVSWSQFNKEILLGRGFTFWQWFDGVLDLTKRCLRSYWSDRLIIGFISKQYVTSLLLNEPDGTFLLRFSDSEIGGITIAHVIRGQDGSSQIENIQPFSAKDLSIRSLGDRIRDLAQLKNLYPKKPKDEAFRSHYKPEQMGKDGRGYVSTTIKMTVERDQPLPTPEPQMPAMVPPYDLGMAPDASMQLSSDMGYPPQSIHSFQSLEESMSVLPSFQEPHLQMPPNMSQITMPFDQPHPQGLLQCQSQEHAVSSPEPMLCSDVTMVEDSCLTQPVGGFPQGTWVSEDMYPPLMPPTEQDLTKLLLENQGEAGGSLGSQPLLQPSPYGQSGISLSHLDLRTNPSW
Briefly: EMSA. Conditions: IL-4-treated extract; 20 mM HEPES pH 7.9, 6.25% glycerol, 0.5 mM EDTA, 50 ug/ml poly dIdC, 50 ug/ml BSA, 12.5 ug/ml salmon sperm DNA, 3 ug nuclear extract, 15 min room temperature; protein in an extract; label: 32P end label. Background: In EMSA bound probe runs differently from free probe, usually more slowly.

For data set [2], the target named is T1, STAT6 (IL-4-activated, endogenous) (Mus musculus (C57BL/6)). Briefly: EMSA, supershift. The settings on record: IL-4-treated extract; 20 mM HEPES pH 7.9, 6.25% glycerol, 0.5 mM EDTA, 50 ug/ml poly dIdC, 50 ug/ml BSA, 12.5 ug/ml salmon sperm DNA, 3 ug nuclear extract, 15 min room temperature; protein in an extract; label: 32P end label.
Data set [3] shares this target. Briefly: competition with a labelled probe. Conditions: unlabelled, 100-fold excess, competes STAT6 complex from T1, T2, T4 and T11 probes; 20 mM HEPES pH 7.9, 6.25% glycerol, 0.5 mM EDTA, 50 ug/ml poly dIdC, 50 ug/ml BSA, 12.5 ug/ml salmon sperm DNA, 3 ug nuclear extract, 15 min room temperature; protein in an extract; label: 32P end label.

The exact form of at least one protein or probe is not confirmed. Where cells or extracts were used, other partners may take part. For some of these results: No signal at the amounts used counts as a negative. Where a protein sequence is shown, tags need not be part of it.

On to “TACTGAACATCCCTGTAACCTGCTCA (double strand) [T3 probe]”, for which, in data set [1], the binding result is given as “no binding”.
For “ATCTCAAATTCTTTGAATTTCTCTAG (double strand) [T1 probe]”, the binding result in data set [2] and in data set [3] was “binds” in each case.
For the sequence “GGCTCAGCTTCAGCTGAACCTCTGGG (double strand) [T6 probe]”, the binding result in data set [1] was “no binding”.
The same measure, in the same setting: as for “CCTCTGGGTTCCCCAAAATAGGGTGG (double strand) [T5 probe]”, the entry is “no binding”.
“AGTGACCATTCTCTGGAAAGCCACAA (double strand) [T2 probe]”: in data set [2], the binding result is listed as “binds”.
Consider “TAGGCCTCTTCTACTGAACATCCCTG (double strand) [T4 probe]”, for which the binding result in data set [2] and in data set [3] was “binds” in each case.
Regarding “AAACTCTTTTCTGGGCACTGTTGTTA (double strand) [T9 probe]”, the binding result in data set [1] is “no binding”.
With “ATAGTGACTTGTCCTGAAACTCTTTT (double strand) [T10 probe]”, the binding result in data set [1] is “no binding”.
On to “CTATGGGCTTCTAGGGCAGCCTCTGG (double strand) [T8 probe]”, for which the binding result in data set [1] is “no binding”.
Regarding “GTGCTCTATTTCTGGGAGCTGAGCTT (double strand) [T7 probe]”, the binding result in data set [1] is on record as “no binding”.
“GGTTCTTTTTCTCAGTAAACCCTGGC (double strand) [T11 probe]”: the binding result in data set [2] is given as “binds”.
